From patent publication US5340802A (Abbott Laboratories, priority 1993, dated 1994)
* marks the point of attachment. Boc = CC(C)(C)OC(=O)*

Assay: general procedure: solution-phase peptide synthesis; DPPA/N-methylmorpholine; active esters; isobutyl chloroformate/NMM

| Substance | step yield (coupling step) | other results |
| --- | --- | --- |
| BOC-Gly.psi.[CH=CH]Trp-Leu-Asp-Phe-NH2 |  | step yield (coupling step, from the compound of Example 23h): 59% yield |
| BOC-Trp-Leu-Asp(OBn)-[3(S)-benzyl-2-oxo-4-piperazine] | 84% |  |
| BOC-Trp-Leu-Asp(OBn)-α-Nal-NH2 | 70% yield |  |
| BOC-Trp-Leu-Asp(OBn)-β-Nal-NH2 | 73% yield |  |
| BOC-Trp-Leu-Asp-α-Nal-NH2 |  | step yield (late stage modification step): 71% yield |
| BOC-Trp-Tpp-Asp(OBn)-Phe-NH2 | 83% yield |  |
| BOC-[5-amino-2-(1H-indol-3-ylmethyl)-2-pentenoyl]-Leu-Asp-Phe-NH2 | 60% |  |
| Boc-WLDW-NH2 |  | isolated mass (whole synthesis, scale 1.50 g of BOC-Trp-O-resin (0.26 mmol/g)): 69 mg |
| Ctp-Leu-Asp-Phe-NHNH2 | 60% yield |  |
| Ctp-Tpp-Asp(OBn)-Phe-NH2 | 47% yield |  |
| Ctp-Tpp-Asp(β-OBn)-(NMe)phe-NH2 | 57% yield |  |
| N^α -BOC-(N^in -propionyl)Trp-Leu-Asp-Phe-NH2 | 67% |  |
| N^α -BOC-N^in -formyl-Trp-Leu-Asp-Phe-NH2 | 50% |  |
